# Measured values reported in PubChem BioAssay AID504444 (National Center for Advancing Translational Sciences (NCATS), 2011).
# Several values for one entry are separate records, joined by “and”; a condition that tells them apart may be missing. Identical values can stand only once. In all, about 360,000 compounds went through this assay and about 7,500 (2.1%) were called active. The inconclusive results got no clear call from the source; some entries with a clear call stand among them for comparison. Calls follow the shape of the dose curve; as a rule, active = well fitted inhibition curve with a large enough effect; inconclusive = small, poorly fitted or top-dose-only effect, or effect the other way; inactive = flat fitted curve, though single readings scatter. A potency beside an inconclusive call is a rough fit, not a confirmed value. Some structures have more than one record in an assay (separate samples or runs), and their calls can disagree.
# Experiment: Nrf2 qHTS screen for inhibitors; also: nearly all actives have a fitted effect of over 60% in size
# Details: A549 ARE-Fluc reporter, luciferase luminescence, 18-24 h; activity change, negative = inhibition: at 46 µM (top of the series)
# Outline: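 Concentration-response testing used A549 ARE_Fluc cells at 5000 cells/well. Following an 18-24 h compound incubation, viability was read by fluorescence (Ex 405/Em 525) and luciferase output by luminescence.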
# % is scaled to controls: 0 for no effect and ±100 for the full control effect; potency is read from the fitted curve at half-maximal effect.
Structure (SMILES),Potency,"activity change, negative = inhibition"
Cc1ccc(NC(=S)NNC(=O)c2c([N+](=O)[O-])c(C)nn2C)cc1,inactive,
Cc1ccc(C(=O)N/C(=C\c2ccc(-c3ccc([N+](=O)[O-])cc3)o2)C(=O)NC2CCS(=O)(=O)C2)cc1 (centres undefined),"inconclusive: 20.6 µM [falling, single point]",
CCn1nc(C(=O)OCC(=O)Nc2nc(-c3ccc(OC)cc3)cs2)c2ccccc2c1=O,"inconclusive: 23.1 µM [activator, partial curve]",
Cc1ccc(S(=O)(=O)N2CCCN(S(=O)(=O)c3ccc4ccccc4c3)CC2)cc1,"inconclusive: 18.4 µM [falling, single point]",
Cc1ccc(-n2ncc(C(=O)NCc3cccs3)c2C2CCN(C(=O)OC(C)(C)C)CC2)cc1C,active: 20.6 µM,
Cc1nn(Cc2ccccc2Cl)c(C)c1NC(=O)C1C2CCC(O2)C1C(=O)O (centres undefined),"inconclusive: 16.4 µM [falling, single point]",
Cc1ccc(NC(=O)CCNS(=O)(=O)c2ccc3c(c2)CCC(=O)N3)c(Br)c1,inactive,
Brc1ccc(Oc2ncc(CN3CCN(c4ccccc4)CC3)s2)cc1,"inconclusive: 18.4 µM [falling, partial curve, poor fit]",
O=C(NC(=S)Nc1ccccn1)c1ccc(-c2ccccc2)cc1,"inconclusive: 0.731 µM [activator, partial curve]",
COc1ccc(C(CNC(=O)c2cc(S(=O)(=O)N3CCN(c4ccccc4)CC3)ccc2Cl)N(C)C)cc1 (centres undefined),"inconclusive: 16.4 µM [falling, single point]",
Cc1c(C(=O)OCCOc2ccccc2)[nH]c2c1C(=O)CCC2,"inconclusive: 2.91 µM [activator, partial curve]",
COc1ccc(Sc2nnc(Cc3ccccc3)c3ccccc23)cc1,"inconclusive: 29.1 µM [falling, single point]",
COc1ccc(C(=O)Nc2sc(C)c(C)c2CN2CCOCC2)cc1,"inconclusive: 5.17 µM [activator, partial curve]",
O=C(NCCCn1ccnc1)c1ccc(Cl)cc1[N+](=O)[O-],"inconclusive: 2.59 µM [activator, full curve]",
CCCCCn1c(=O)[nH]c2cc(C(=O)NCc3ccc(C)cc3)ccc2c1=O,,inactive: 0.529% [at 9.27 µM]
CC(NC(=O)C12CC3CC(CC(C3)C1)C2)C(=O)NN=Cc1ccc([N+](=O)[O-])o1 (centres undefined),"inconclusive: 23.1 µM [falling, single point]",
O=C(CN(C(=O)c1cc2c(s1)CCC2)C1CCCC1)NCc1cccs1,"inconclusive: 29.1 µM [falling, single point]",
CC(Oc1ccc(-c2ccccc2)c(F)c1)c1ccn(S(=O)(=O)c2ccc(Br)cc2)n1 (centres undefined),"inconclusive: 18.4 µM [falling, single point]",
COc1ccccc1C1NC(c2ccc3c(c2)OCO3)=CC(c2cc(Br)ccc2O)N1 (centres undefined),"inconclusive: 0.0041 µM [activator, full curve, poor fit]",
COCCn1c(=NC(=O)CCS(=O)(=O)c2ccccc2)sc2c(OC)ccc(OC)c21,"inconclusive: 0.461 µM [falling, partial curve, poor fit]",
COc1c(C)cc(C(=O)C2CCCN(C(=O)c3cccc(F)c3)C2)cc1C (centres undefined),"inconclusive: 25.9 µM [falling, single point]",
CCC(=O)Oc1c(C(=O)CC)cc2c(C)cc(=O)oc2c1C,"inconclusive: 29.1 µM [falling, single point]",

Structure (SMILES),Potency,"activity change, negative = inhibition"
Nc1ncnc2c1c(-c1ccc(Oc3ccccc3)cc1)cn2C1CCCC1,"inconclusive: 20.6 µM [falling, single point]",
COc1ccccc1OCC(=O)N/N=C1/C=C(C)CC1,"inconclusive: 11.6 µM [activator, partial curve]",
COc1ccc(-c2nc3ccccc3nc2-c2ccccc2)cc1,"inconclusive: 0.0052 µM [falling, full curve, poor fit]",
CN(C)CCOC(=O)c1ccc(COc2ccccc2Br)o1,"inconclusive: 29.1 µM [activator, partial curve, poor fit]",
CCCc1nc2c(s1)CCc1onc(-c3ccc(Cl)cc3)c1-2,"inconclusive: 18.4 µM [activator, partial curve]",
Cc1ccc(C(=O)c2oc3ccccc3c2NC(=O)c2nc(S(C)(=O)=O)ncc2Cl)cc1F,inactive,
COc1ccc(NC(=O)CCN2CCN(S(=O)(=O)c3ccc(C(C)C)cc3)CC2)cc1,"inconclusive: 20.6 µM [falling, single point]",
COc1ccccc1C(=O)OCCc1ccccc1,"inconclusive: 8.2 µM [activator, partial curve, poor fit]",
CCN(CC)c1ccc2cc(-c3nnc(-c4cccc(Cl)c4)o3)c(=O)oc2c1,inactive,
Cc1ccc(NS(=O)(=O)c2cccc(C(=O)N3CCCCCCC3)c2)cc1,"inconclusive: 23.1 µM [falling, partial curve, poor fit]",
Cc1cc(Oc2ccccc2F)nc(NCc2ccccc2)n1,"inconclusive: 23.1 µM [falling, single point]",
CCCCN(C)CCNC(=O)Cn1ncc2c3ccccc3n(CCC)c2c1=O,"inconclusive: 32.6 µM [activator, single point]",
O=c1c2cccnc2n(-c2ccccc2)n1Cc1ccc(Cl)cc1,"inconclusive: 23.1 µM [activator, single point]",
Cc1ccc(NC(=O)c2ncn(-c3ccccc3)n2)c(Cl)c1,"inconclusive: 1.84 µM [activator, full curve]",
Cc1cccc(-c2noc(CN(C(=O)c3ccc(C)c(C)c3)C(C)C)n2)c1,"inconclusive: 29.1 µM [falling, single point]",
CC(C)Oc1ccc(CCc2n[nH]c(=S)n2Cc2ccccc2)cc1,"inconclusive: 29.1 µM [falling, single point]",
O=C1CC(N2CCN(S(=O)(=O)c3ccc([N+](=O)[O-])cc3)CC2)C(=O)N1c1ccccc1F (centres undefined),inactive,
CCCC1S/C(=N/N=C/c2cccs2)NC1=O (centres undefined),"inconclusive: 9.2 µM [activator, partial curve, poor fit]",
O=C(Nc1ccc(F)cc1)Nc1ccccc1N1CCCCC1,"inconclusive: 29.1 µM [falling, single point]",
CC(=O)c1c(C)[nH]c(C(=O)OCC(=O)Nc2cc(Cl)ccc2[N+](=O)[O-])c1C,"inconclusive: 14.6 µM [falling, partial curve]",
COc1ccccc1Nc1nc(-c2cccs2)cs1,"inconclusive: 10.3 µM [activator, partial curve]",
Cc1csc(=N)n1CC(=O)N1CCc2ccccc21,"inconclusive: 7.31 µM [activator, partial curve]",

Structure (SMILES),Potency,"activity change, negative = inhibition"
O=C(Nc1cccc(Cl)c1)c1cc(S(=O)(=O)N2CCOCC2)cs1,"inconclusive: 20.6 µM [falling, single point]",
Cc1nc2cc(-c3cccc(F)c3)nn2c(C)c1CCC(=O)N1CCN(c2ccc(F)cc2)CC1,"inconclusive: 2.59 µM [falling, full curve]",
Cc1cc2c(s1)c1cnn(Cc3ccc(Cl)c(Cl)c3)c(=O)c1n2C,inactive,
COc1cc(O)c(C(=O)CC(=O)c2ccncc2)c(OC)c1,"inconclusive: 20.6 µM [falling, single point]",
CCOC(=O)c1cccc(NC(=O)CC(c2ccc(F)cc2)N2Cc3ccccc3C2=O)c1 (centres undefined),inactive,
Cc1ccc(NC(=S)Nc2cccc(S(=O)(=O)Nc3c(C)n(C)n(-c4ccccc4)c3=O)c2)cc1,"inconclusive: 9.2 µM [activator, partial curve]",
Cc1ccc(-n2c(SCC(=O)N3CC(=O)Nc4ccccc43)nc3ccccc3c2=O)cc1,"inconclusive: 20.6 µM [falling, partial curve, poor fit]",
CN(c1ccccc1)S(=O)(=O)c1ccc(NC(=O)c2ccccc2)cc1,"inconclusive: 29.1 µM [falling, single point]",
Cc1cccc(COC(=O)C(Cc2ccccc2)NC(N)=O)c1 (centres undefined),inactive,
O=[N+]([O-])c1cccc(S(=O)(=O)NCc2ccncc2)c1,active: 7.31 µM,
O=C1C(C=NCC2CCCO2)=C(O)c2ccccc21 (centres undefined),"inconclusive: 8.2 µM [activator, partial curve]",
O=C(c1ccccc1)c1ccc(N2CCN(C(=O)c3cccc(F)c3F)CC2)c(F)c1,"inconclusive: 23.1 µM [falling, single point]",
CCCCn1c(SCC(=O)NCc2ccco2)nc2c(sc3ccccc32)c1=O,inactive,
C=CCc1cc(Cl)ccc1OCCN1CC(C)OC(C)C1 (centres undefined),"inconclusive: 29.1 µM [activator, single point]",
COc1ccc(-n2nc(C(=O)NCC(=O)N3CCC(C)CC3)c3ccccc3c2=O)cc1,"inconclusive: 4.61 µM [activator, partial curve]",
C/C(=C\c1cccc(Cl)c1)C(=O)c1c(C)cc(C)[nH]c1=O,"inconclusive: 23.1 µM [falling, single point]",
COc1ccc(S(=O)(=O)Nc2ccccc2-c2nnn(CC(=O)Nc3ccccc3OC)n2)cc1,"inconclusive: 20.6 µM [falling, single point]",
CC(C)C1CC(CCNCc2ccc3c(c2)OCO3)(c2ccccc2)CCO1 (centres undefined),"inconclusive: 20.6 µM [activator, partial curve]",
COc1cc(N=c2ssnc2Cl)c(OC)cc1Cl,inactive and active: 23.1 µM,
Cc1cc(NC(=O)COC(=O)c2c(Cl)cccc2Cl)no1,"inconclusive: 16.4 µM [activator, partial curve]",
